Measurements reported in PubChem BioAssay AID1224826 (NIAID, 2016).
The deposit covers about 17,000 reagents; this is an unselected part. Of all reagents, about 1,110 (6.6%) are marked active. 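Active means lowered or raised reporter signal; replicate intensities are raw and not normalised per plate.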 Entries without a mark were called inactive. Not all columns of the deposit are shown.

- Assay: 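Regulators of Tlr4 signalling leading to Tnf-alpha expression in macrophages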 (primary screen)
- Cells: RAW264.7 G9 macrophages from mouse bearing reporters for p65 (GFP) and the Tnf promoter (mCherry)
- Reagent: siRNA pool against mouse genes, 100 nM
- Time to read-out: 16 h of LPS stimulation, after 2 days of siRNA transfection
- Challenge: bacterial lipopolysaccharide (Salmonella minnesota R595), 10 ng/ml
- Measured: 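Nuclear mCherry signal of the Tnf promoter reporter measured by imaging after background removal, scaled to each plate median and turned into robust z-scores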
- Scale: Tnf reporter robust z-score: higher = stronger Tnf promoter reporter signal after LPS; Tnf reporter intensity: higher = stronger Tnf promoter reporter signal
- Call rule: 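a well counts as active at a score of -1.3 or below (Tlr4 knock-down control median) or above 3 (raised signal); controls and wells holding fewer than 50 cells are excluded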
- Meaning of the calls: active = Tnf reporter clearly lowered or raised; inactive = no clear change in Tnf reporter

gene	Tnf reporter robust z-score	fewer than 50 cells in well	Tnf reporter intensity, replicate 1
Gmpr2 (guanosine monophosphate reductase 2)	-0.03	enough cells in well	213
Zfp473 (zinc finger protein 473)	-0.52	enough cells in well	139
Zfp738 (zinc finger protein 738)	-0.72	enough cells in well	141
Catsper3 (cation channel, sperm associated 3)	-0.14	enough cells in well	135
Gm9871 (predicted gene 9871)	0.08	enough cells in well	289
Scel (sciellin)	-0.89	enough cells in well	222
Or4b12 (olfactory receptor family 4 subfamily B member 12)	2.02	enough cells in well	347
Pdpr (pyruvate dehydrogenase phosphatase regulatory subunit)		fewer than 50 cells per well; well left out of calls	114
Tpk1 (thiamine pyrophosphokinase)		fewer than 50 cells per well; well left out of calls	163
Abhd2 (abhydrolase domain containing 2)	-0.28	enough cells in well	134
Igf1 (insulin-like growth factor 1)	-0.88	enough cells in well	183
Gipc2 (GIPC PDZ domain containing family, member 2)	0.06	enough cells in well	312
Nudt13 (nudix hydrolase 13)	-0.42	enough cells in well	197
Yipf7 (Yip1 domain family, member 7)		fewer than 50 cells per well; well left out of calls	196
BC048679 (cDNA sequence BC048679)	-1.01	enough cells in well	128
Lrrc20 (leucine rich repeat containing 20)	-0.86	enough cells in well	139
Ccl25 (C-C motif chemokine ligand 25)	-0.71	enough cells in well	144
Ccdc87 (coiled-coil domain containing 87)		fewer than 50 cells per well; well left out of calls	232
Or14c45 (olfactory receptor family 14 subfamily C member 45)		fewer than 50 cells per well; well left out of calls	149
Or8s5 (olfactory receptor family 8 subfamily S member 5)	0.67	enough cells in well	216
Wdr55 (WD repeat domain 55)	-0.97	enough cells in well	166
Atg16l1 (autophagy related 16 like 1)	1.14	enough cells in well	252
Sestd1 (SEC14 and spectrin domains 1)	0.37	enough cells in well	103
Ap1m2 (adaptor protein complex AP-1, mu 2 subunit)	-1.08	enough cells in well	141

Only “fewer than 50 cells in well” (2 entries from above):
Nudt13 (nudix hydrolase 13)	enough cells in well
Yipf7 (Yip1 domain family, member 7)	fewer than 50 cells per well; well left out of calls
